According to patent publication US20240279710A1, “FLUORESCENT PROBES” (TOHOKU TECHNO ARCH CO., LTD., priority 2021, published 2024):
Some results were stated once for a whole list of compounds, not compound by compound.

Columns and labels:
[1] = target: T1, calpain-1 from human erythrocytes (Homo sapiens, UniProt P07384); assay: Fluorescence assay with calpain-1; format: biochemical; conditions: 10 μM probe; for increase in fluorescence intensity 10 minutes after the addition of calpain-1: excitation 475 nm, fluorescence 500-550 nm; for enzymatic reactivity with a calpain as compared to Compound 16, or Compound 17 or 18: calpain-1, 37° C., FIG. 5; for increase in fluorescence intensity 30 minutes after the addition of calpain-1: excitation 460 nm, fluorescence 530 nm, FIG. 5(c)
T1 construct: calpain-1 from human erythrocytes; purchased Merck Millipore 208713; host or cells: human erythrocytes (natural source)
T1 sequence (P07384 1-714): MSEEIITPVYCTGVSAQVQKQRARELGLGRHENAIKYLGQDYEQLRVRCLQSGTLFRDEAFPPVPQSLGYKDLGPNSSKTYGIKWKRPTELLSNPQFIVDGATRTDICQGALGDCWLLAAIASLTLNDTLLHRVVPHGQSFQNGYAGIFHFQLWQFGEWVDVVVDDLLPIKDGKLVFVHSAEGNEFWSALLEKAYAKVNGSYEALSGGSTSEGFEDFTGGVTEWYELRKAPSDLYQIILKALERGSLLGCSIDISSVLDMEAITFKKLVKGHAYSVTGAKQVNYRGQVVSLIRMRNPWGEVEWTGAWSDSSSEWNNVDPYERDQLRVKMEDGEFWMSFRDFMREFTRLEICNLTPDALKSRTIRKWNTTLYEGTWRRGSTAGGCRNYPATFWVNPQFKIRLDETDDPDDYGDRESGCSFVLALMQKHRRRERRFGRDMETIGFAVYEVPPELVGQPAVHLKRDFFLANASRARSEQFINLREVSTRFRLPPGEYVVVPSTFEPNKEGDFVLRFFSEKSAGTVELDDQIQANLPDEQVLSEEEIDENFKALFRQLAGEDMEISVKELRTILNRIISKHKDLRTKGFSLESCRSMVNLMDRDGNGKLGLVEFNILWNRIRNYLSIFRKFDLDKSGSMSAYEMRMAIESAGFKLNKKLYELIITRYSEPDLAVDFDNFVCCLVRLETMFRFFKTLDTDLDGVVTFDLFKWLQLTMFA
T1 sequence (P04632 1-268 partner): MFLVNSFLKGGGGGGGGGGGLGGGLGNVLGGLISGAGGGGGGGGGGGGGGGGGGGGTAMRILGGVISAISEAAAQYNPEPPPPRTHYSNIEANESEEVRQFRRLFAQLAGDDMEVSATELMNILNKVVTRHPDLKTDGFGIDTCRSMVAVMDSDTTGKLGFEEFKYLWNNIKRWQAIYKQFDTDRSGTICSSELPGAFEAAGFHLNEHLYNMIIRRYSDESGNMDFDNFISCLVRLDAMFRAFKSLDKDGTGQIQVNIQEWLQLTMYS
Method: The fluorescence assays of Compound 19 and Compound 16 with time were performed. Specifically, 17.4 U/mL of calpain-1 and 5 mM CaCl2 were added to a 50 mM TRIS buffer (pH: 7.4, 2 mM EGTA, 2 mM DTE) containing 10 μM of each of the synthesized fluorescent probes to perform an enzyme reaction at 37° C. Each of the compounds to which calpain-1 and CaCl2 were not added was similarly subjected as a negative control to the measurement.
The fluorescence assays of Compounds 16 to 36 were similarly performed. 50 Units per milliliter (Compounds 16 and 19 to 25) or 17.4 U/mL (Compounds 16 to 18 and 26 to 36) of calpain-1 and 5 mM CaCl2 were added to a 50 mM TRIS buffer (pH: 7.4, 2 mM EGTA, 2 mM DTE) containing 10 μM of each of the synthesized fluorescent probes to perform an enzyme reaction at 37° C.
Next, similar fluorescence assays of Compounds 37, 42, 45, 48, 51, 53, 55, 57, and 59 with calpain-1 were performed. Specifically, 17.4 U/mL of calpain-1 and 5 mM CaCl2 were added to a 50 mM TRIS buffer (pH: 7.4, 2 mM EGTA, 2 mM DTE) containing 10 μM of each of the synthesized fluorescent probes to perform an enzyme reaction at 37° C. Each of the compounds to which calpain-1 was not added was used as a control.
To evaluate an influence of a R^12-L-O— group on the reactivity of each of compounds having the same amino acids with calpain-1, the fluorescence assays of Compounds 37 to 66 with calpain-1 were performed in accordance with the above-mentioned method. Specifically, 17.4 U/mL of calpain-1 and 5 mM CaCl2 were added to a 50 mM TRIS buffer (pH: 7.4, 2 mM EGTA, 2 mM DTE) containing 10 μM of each of the synthesized fluorescent probes to perform an enzyme reaction at 37° C., followed by the measurement of an increase in fluorescence intensity of each of the compounds 10 minutes after the addition of calpain-1.

SH-SY5Y cells = assay: Live cell imaging of calpain activity in SH-SY5Y cells; format: cell-based; conditions: 5 μM probe
Method: Whether or not the improvement in enzymatic reactivity between the compound of the present invention and a calpain confirmed by the above-mentioned experiment remained the same even in a cell was verified. Calpain activity imaging in SH-SY5Y cells was performed on each of Compounds 16 and 19. Specifically, the SH-SY5Y cells (American Type Culture Collection, VA, USA) were cultured in a mixed medium of Dulbecco's modified eagle medium and Ham's F-12 medium (DMEM/F-12; Thermo Fisher Scientific, Inc.) (containing 10% fetal bovine serum (FBS; Thermo Fisher Scientific, Inc., MA, USA) and 100 U/mL penicillin-100 μg/mL streptomycin (PS; Thermo Fisher Scientific, Inc.)) under the conditions of 37° C. and 5% CO2-95% air. 6×10^4 to 8×10^4 Cells/well of the cells were seeded in a multiwell plate (μ-Plate 96 Well; ibidi, Grafelfing, Germany) coated with poly-D-lysine (Thermo Fisher Scientific, Inc.) and laminin (BD Biosciences, CA, USA), and were preincubated in a culture solution. Immediately after the removal of the culture solution in the wells, 200 μL of an assay solution (a culture solution containing a 5 μM probe) was added thereto, and the cells were incubated under the conditions of 37° C. and 5% CO2-95% air. 10 Minutes after that, a bright field image and a fluorescence image were taken with a confocal microscope (LSM 710, Carl Zeiss AG, Oberkochen, Germany).
Calpain activity imaging in SH-SY5Y cells was performed on each of Compounds 20 to 23, Compound 38, and Compound 56 in the same manner as in Example 9. In the case of each of Compounds 20 to 23 and Compound 38, a bright field image and a fluorescence image were taken after 30 minutes of incubation of the cells, and in the case of Compound 56, such images were taken after 20 minutes of incubation thereof.

[2] = 50 U/mL calpain-1, 5 mM CaCl2, 37° C., FIG. 5(a)
[3] = 30 minutes of incubation, FIG. 13, FIG. 14
[4] = 17.4 U/mL calpain-1, 5 mM CaCl2, 37° C., FIG. 5(b)
[5] = 17.4 U/mL calpain-1, 5 mM CaCl2, 37° C.

SMILES	enzymatic reactivity with a calpain as compared to Compound 16, or Compound 17 or 18 [1]	increase in fluorescence intensity 30 minutes after the addition of calpain-1 [1, 5]	other results
COCC(=O)N[C@@H](CC(C)C)C(=O)N[C@@H](CCSC)C(=O)Nc1ccc2c(c1)Oc1cc(N)ccc1C21OCc2ccccc21 (stereo partly shown) [Compound 19]	improved in enzymatic reactivity with a calpain		increase in fluorescence intensity 10 minutes after the addition of calpain-1 [1, 2]: larger than that of Compound 16
COCCOCC(=O)N[C@@H](CC(C)C)C(=O)N[C@@H](CCSC)C(=O)Nc1ccc2c(c1)Cc1cc(N)ccc1C21OCc2ccccc21 (stereo partly shown) [Compound 20]	improved in enzymatic reactivity with a calpain		calpain activity imaging in SH-SY5Y cells (SH-SY5Y cells; [3]): calpain activity in the SH-SY5Y cells was able to be observed; increase in fluorescence intensity 10 minutes after the addition of calpain-1 [1, 2]: larger than that of Compound 16
COCCOCCOCCOCCOCCOCC(=O)N[C@@H](CC(C)C)C(=O)N[C@@H](CCSC)C(=O)Nc1ccc2c(c1)Oc1cc(N)ccc1C21OCc2ccccc21 (stereo partly shown) [Compound 24]	improved in enzymatic reactivity with a calpain		increase in fluorescence intensity 10 minutes after the addition of calpain-1 [1, 2]: larger than that of Compound 16
COCCOCCOCCOCCOCCOCCOCC(=O)N[C@@H](CC(C)C)C(=O)N[C@@H](CCSC)C(=O)Nc1ccc2c(c1)Oc1cc(N)ccc1C21OCc2ccccc21 (stereo partly shown) [Compound 25]	improved in enzymatic reactivity with a calpain		increase in fluorescence intensity 10 minutes after the addition of calpain-1 [1, 2]: larger than that of Compound 16
CSCC[C@H](NC(=O)[C@H](CC(C)C)NC(=O)CO)C(=O)Nc1ccc2c(c1)Oc1cc(N)ccc1C21OCc2ccccc21 (stereo partly shown) [Compound 26]	improved in enzymatic reactivity with a calpain		increase in fluorescence intensity 10 minutes after the addition of calpain-1 [1, 4]: larger than those of Compounds 16 to 18
CCOCC(=O)N[C@@H](CC(C)C)C(=O)N[C@@H](CCSC)C(=O)Nc1ccc2c(c1)Oc1cc(N)ccc1C21OCc2ccccc21 (stereo partly shown) [Compound 27]	improved in enzymatic reactivity with a calpain		increase in fluorescence intensity 10 minutes after the addition of calpain-1 [1, 4]: larger than those of Compounds 16 to 18
CSCC[C@H](NC(=O)[C@H](CC(C)C)NC(=O)COCC1(C)COC1)C(=O)Nc1ccc2c(c1)Oc1cc(N)ccc1C21OCc2ccccc21 (stereo partly shown) [Compound 28]	improved in enzymatic reactivity with a calpain		increase in fluorescence intensity 10 minutes after the addition of calpain-1 [1, 4]: larger than those of Compounds 16 to 18
CSCC[C@H](NC(=O)[C@H](CC(C)C)NC(=O)COCCCN)C(=O)Nc1ccc2c(c1)Oc1cc(N)ccc1C21OCc2ccccc21 (stereo partly shown) [Compound 29]	improved in enzymatic reactivity with a calpain		increase in fluorescence intensity 10 minutes after the addition of calpain-1 [1, 4]: larger than those of Compounds 16 to 18
CSCC[C@H](NC(=O)[C@H](CC(C)C)NC(=O)COCCO)C(=O)Nc1ccc2c(c1)Oc1cc(N)ccc1C21OCc2ccccc21 (stereo partly shown) [Compound 30]	improved in enzymatic reactivity with a calpain	larger than that of Compound 16	
CSCC[C@H](NC(=O)[C@H](CC(C)C)NC(=O)COC(C)C)C(=O)Nc1ccc2c(c1)Oc1cc(N)ccc1C21OCc2ccccc21 (stereo partly shown) [Compound 31]	improved in enzymatic reactivity with a calpain	larger than that of Compound 16	
CSCC[C@H](NC(=O)[C@H](CC(C)C)NC(=O)C(C)O)C(=O)Nc1ccc2c(c1)Oc1cc(N)ccc1C21OCc2ccccc21 (stereo partly shown) [Compound 32]	improved in enzymatic reactivity with a calpain	larger than that of Compound 16	
CSCC[C@H](NC(=O)[C@H](CC(C)C)NC(=O)C(C)(C)O)C(=O)Nc1ccc2c(c1)Oc1cc(N)ccc1C21OCc2ccccc21 (stereo partly shown) [Compound 33]	improved in enzymatic reactivity with a calpain	larger than that of Compound 16	
CSCC[C@H](NC(=O)[C@H](CC(C)C)NC(=O)C1(O)CC1)C(=O)Nc1ccc2c(c1)Oc1cc(N)ccc1C21OCc2ccccc21 (stereo partly shown) [Compound 34]	improved in enzymatic reactivity with a calpain	larger than that of Compound 16	
CSCC[C@H](NC(=O)[C@H](CC(C)C)NC(=O)[C@H]1CCCO1)C(=O)Nc1ccc2c(c1)Oc1cc(N)ccc1C21OCc2ccccc21 (stereo partly shown) [Compound 35]	improved in enzymatic reactivity with a calpain	larger than that of Compound 16	
COCC(=O)N[C@@H](CC(C)C)C(=O)N[C@H](C(=O)Nc1ccc2c(c1)Oc1cc(N)ccc1C21OCc2ccccc21)[C@@H](C)O (stereo partly shown) [Compound 38]			calpain activity imaging in SH-SY5Y cells (SH-SY5Y cells; [3]): calpain activity in the SH-SY5Y cells was able to be observed
COCC(=O)N[C@@H](CC(C)C)C(=O)N[C@@H](CCCNC(=N)N)C(=O)Nc1ccc2c(c1)Oc1cc(N)ccc1C21OCc2ccccc21 (stereo partly shown) [Compound 56]			calpain activity imaging in SH-SY5Y cells (SH-SY5Y cells; 20 minutes of incubation, FIG. 14(c)): calpain activity in the SH-SY5Y cells was able to be observed
